# Data: PubChem BioAssay AID1671190 (National Center for Advancing Translational Sciences (NCATS), 2021)
# Amino acid sequences for entries named in this document (tags omitted). A change or cut given only in a name is not applied to a line headed by its entry.
# UniProt P18054: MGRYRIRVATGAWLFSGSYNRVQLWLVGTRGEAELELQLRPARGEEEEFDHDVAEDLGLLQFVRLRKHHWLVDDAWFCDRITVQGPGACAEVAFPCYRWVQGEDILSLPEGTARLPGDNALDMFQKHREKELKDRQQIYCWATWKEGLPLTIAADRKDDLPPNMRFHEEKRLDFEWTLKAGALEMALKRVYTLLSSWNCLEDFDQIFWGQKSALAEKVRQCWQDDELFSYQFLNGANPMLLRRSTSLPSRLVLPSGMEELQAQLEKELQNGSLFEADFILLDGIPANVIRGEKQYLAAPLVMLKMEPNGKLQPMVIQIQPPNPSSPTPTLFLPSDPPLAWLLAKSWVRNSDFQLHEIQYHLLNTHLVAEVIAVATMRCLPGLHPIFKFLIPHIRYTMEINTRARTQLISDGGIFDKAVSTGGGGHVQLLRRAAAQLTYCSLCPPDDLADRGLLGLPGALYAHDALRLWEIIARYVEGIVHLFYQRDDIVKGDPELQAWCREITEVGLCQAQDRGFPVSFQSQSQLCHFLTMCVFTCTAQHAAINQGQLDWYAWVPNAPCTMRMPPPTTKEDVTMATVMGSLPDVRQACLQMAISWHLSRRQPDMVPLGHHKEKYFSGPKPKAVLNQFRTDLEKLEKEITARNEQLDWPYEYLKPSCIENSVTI
# Values joined by “and” are separate entries in the source; they are usually repeats but may differ in a detail not shown here. Identical values can stand only once. The whole screen tested about 580,000 compounds, of which about 6,100 (1.1%) were called active. Inconclusive means that the source gave no clear call. Such entries were picked first, then a sample of the others. The call rests on the fitted dose curve; in most records, active means well fitted inhibition curve with a large enough effect; inconclusive means small, poorly fitted or top-dose-only effect, or another doubt; inactive means no such curve, though single readings can be large or run the other way. Potencies of inconclusive entries are doubtful fits and often do not repeat.
# Target: Polyunsaturated fatty acid lipoxygenase ALOX12 (Homo sapiens) (UniProt P18054)
# Test: Primary qHTS assay for inhibitors of human arachidonate 12S-lipoxygenase (ALOX12): Round 2
# Settings: purified 12hLO, xylenol orange hydroperoxide absorbance; series mostly up to 108 µM
# Method in brief: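 Purified human 12hLO at 150 nM in 25 mM Hepes, 0.01% Triton X-100, pH 7.0, preincubated 15 min at room temperature with compound. Reaction started with 40 uM arachidonic acid, 30 min at room temperature. Hydroperoxide measured by Fe-xylenol orange, 573/405 nm absorbance ratio.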
# Potency means the concentration at half of the fitted maximal effect.
row,Compound,Potency
1,CCOC(=O)c1c(C)n(-c2ccc(C)cc2)c2c(C(C(C)=O)C(=O)O)c(Br)c(O)c(O)c12 (stereo not given),inactive
2,FC(F)(F)c1ccccc1CN1CCCc2nc(-c3ccccc3)ccc21,"inconclusive: 44.7 µM [inhibitor, partial curve, poor fit]"
3,CCN(CC(=O)Nc1ccccc1C(F)(F)F)C(=O)c1cc(S(=O)(=O)N(C)C)ccc1N1CCCC1,"inconclusive: 112 µM [inhibitor, single point]"
4,Cc1cc(C)nc(/N=C(\N)Nc2ccc(-c3ccccc3)cc2)n1,inactive
5,O=c1c(-c2cccs2)nc2cnc(Oc3ccccc3)nc2n1C1CC1,"inconclusive: 28.2 µM [inhibitor, single point]"
6,O=C(NCCc1ccccc1)c1cccc2c(-c3cccnc3)coc12,inactive
7,OC(c1ccccc1)(c1nc(-c2cccc(F)c2)cs1)C(F)(F)F (stereo not given),"inconclusive: 50.1 µM [inhibitor, partial curve, poor fit]"
8,COc1cccc(CC(=O)Nc2ccc3c(c2)c(=O)n(C)n3-c2ccc(C(C)(C)C)cc2)c1,inactive
9,Cc1ccccc1OCCn1c(=S)[nH]c2c(N)ncnc21,"inconclusive: 22.4 µM [inhibitor, partial curve, poor fit]"
10,CCc1ccc2[nH]c(CSCC(=O)Nc3ccc(OC)c(Cl)c3)cc(=O)c2c1,inactive
11,CC(NC(=S)Nc1ccccc1C(F)(F)F)C1CC2CCC1C2 (stereo not given),"inconclusive: 28.2 µM [inhibitor, partial curve, poor fit]"
12,O=C(NCCCl)c1ccc(OCc2ccccc2)cc1Cl,"inconclusive: 31.6 µM [inhibitor, single point]"
13,CCCc1cc(C(N)=O)c(NC(=O)C2CCCO2)s1 (stereo not given),"inconclusive: 35.5 µM [inhibitor, partial curve]"
14,CCN(CC)CC#CC(C)(C)OC(C)=O,"inconclusive: 50.1 µM [inhibitor, partial curve, poor fit]"
15,COc1cc(OC)cc(-c2n[nH]c(=S)n2-c2ccc3c(c2)OCO3)c1,"inconclusive: 7.08 µM [inhibitor, full curve, poor fit]"
16,Cn1nc(C(=O)NCc2ccc(Cl)cc2)c2c1-c1ccccc1S(=O)(=O)C2,"inconclusive: 22.4 µM [inhibitor, partial curve, poor fit]"
17,O=Cc1c(OCc2ccccc2)ccc2ccccc12,inactive
18,O=C1Nc2ccc(-c3ccccc3F)cc2C(=O)N2CCN(C(=O)COc3ccccc3)C[C@H]12,"inconclusive: 44.7 µM [inhibitor, partial curve, poor fit]"
19,Cc1cc(C(=O)NC2CCN(Cc3ccccc3)CC2)c2c(C)nn(-c3cccc(F)c3)c2n1,"inconclusive: 0.224 µM [inhibitor, full curve, poor fit]"
20,CN1C(=O)c2ccccc2C(O)c2ccccc21 (stereo not given),"inconclusive: 112 µM [inhibitor, single point]"

row,Compound,Potency
1,O=C(CC[C@H]1O[C@@H](n2cnc3c(NC(=O)c4ccccc4)ncnc32)[C@H](O)[C@@H]1O)NCc1nc2ccccc2[nH]1,"inconclusive: 31.6 µM [inhibitor, partial curve, poor fit]"
2,Cc1ccc2c(c1)-c1c(ssc1=S)C(C)(C)N2C(=O)c1ccco1,"inconclusive: 5.62 µM [inhibitor, full curve]"
3,CCc1ccc2nc(N(CCN(CC)CC)C(=O)c3ccco3)sc2c1,"inconclusive: 100 µM [inhibitor, partial curve, poor fit]"
4,COc1ccccc1N1CCN(C(=O)CSc2nnc3c4ccccc4n(CC(=O)O)c3n2)CC1,inactive
5,O=C(O)c1cc(S(=O)(=O)Nc2ccc3cn[nH]c3c2)ccc1O,"inconclusive: 6.31 µM [inhibitor, full curve, poor fit]"
6,COCCN1CN=C(Nc2nc(C)c3cccc(OC)c3n2)NC1,inactive
7,Cc1cccc(-c2noc(CCC(=O)N3CCCC4(CCNCC4)CC3)n2)c1,inactive
8,COCCN1CCN(c2cc(-c3ccccc3)nc3cc(-c4cccc(F)c4)nn23)CC1,"inconclusive: 10 µM [inhibitor, single point]"
9,Cc1cccc(NC(=O)CSCC(=O)N(CCC(C)C)c2c(N)n(Cc3ccccc3)c(=O)[nH]c2=O)c1,"inconclusive: 10 µM [inhibitor, partial curve, poor fit]"
10,Cc1ccc(-c2cc(C(=O)NC3CCCCC3C)c3ccccc3n2)cc1C (stereo not given),inactive
11,O=C(Nc1ccc2ncnc(N3CCCC3)c2c1)c1ccc(Cl)s1,inactive
12,O=C(O)c1cc2ccccc2c(=O)s1,"inconclusive: 39.8 µM [inhibitor, partial curve, poor fit]"
13,COc1ccccc1CNC(=O)COC(=O)c1n[nH]c2ccccc12,"inconclusive: 44.7 µM [inhibitor, partial curve, poor fit]"
14,CN(C)S(=O)(=O)N(CC(=O)NCCSCc1ccccc1)c1ccccc1,"inconclusive: 56.2 µM [inhibitor, partial curve, poor fit] and inconclusive: 100 µM [inhibitor, single point]"
15,CC1(C(=O)O)CCCN1C(=O)c1ccco1 (stereo not given),"inconclusive: 39.8 µM [inhibitor, partial curve, poor fit]"
16,CCN(CC)C(=O)c1cc(-c2ccc3c(c2)OCO3)on1,"inconclusive: 31.6 µM [inhibitor, single point]"
17,CCC(=O)Oc1ccc2c(=O)c(Oc3cc(C)cc(C)c3)c(C(F)(F)F)oc2c1,"inconclusive: 10 µM [inhibitor, full curve, poor fit]"
18,CC(C)(CNC(=O)c1cc(-c2ccc(Cl)s2)nc2ccccc12)N1CCOCC1,"inconclusive: 79.4 µM [inhibitor, partial curve, poor fit]"
19,Cc1nn(CC(=O)NCc2cccs2)c(=O)c2nn(-c3ccccc3)c(C)c12,inactive
20,O=C(Cn1c(=O)n(Cc2ccc3c(c2)OCO3)c(=O)c2sccc21)N1CCCC1,"inconclusive: 28.2 µM [inhibitor, partial curve, poor fit]"
